Measured values taken from US12077608B2 (H. LEE MOFFITT CANCER CENTER AND RESEARCH INSTITUTE, INC., priority 2018, dated 2024).
Bridge positions count the residues as written; N and C are the ends. Square brackets hold non-standard residues; d marks the D form. S5 = C=CCCC[C@](C)(N)C(=O)O; Nle = CCCC[C@H](N)C(=O)O

Assay: general procedure: Fmoc solid-phase peptide synthesis; Rink amide resin, 0.37 mmol/g; HCTU/DIPEA
Settings: whole synthesis, LC-MS characterisation

H-E[S5]LKK[S5]K[Nle]KLGTA-NH2 (staple 2-6; N-terminus assumed; SMILES CCCC[C@H](NC(=O)[C@H](CCCCN)NC(=O)[C@]1(C)CCCC=CCCC[C@](C)(NC(=O)[C@@H](N)CCC(=O)O)C(=O)N[C@@H](CC(C)C)C(=O)N[C@@H](CCCCN)C(=O)N[C@@H](CCCCN)C(=O)N1)C(=O)N[C@@H](CCCCN)C(=O)N[C@@H](CC(C)C)C(=O)NCC(=O)N[C@H](C(=O)N[C@@H](C)C(N)=O)[C@@H](C)O)
final HPLC purity: 98.4%
